Some entries share one result that the patent states for a list of compounds. For some of these results: At least one compound was matched to its structure with a doubt left.
Key:
[1] = system: adventitious root of cultivate ginseng, camphor ginseng, wild ginseng; assay: Effect of jasmonic acid and methyl jasmonic acid treatment on the saponin content of adventitious root in balloon shape bioreactor; assay type: cell-based; conditions: root treated in bioreactor for 10 days before harvest, or for 7 days after harvest and washing
Source text: The measurement of saponin content was followed by the standard method for the analysis of ginseng constituent of The Korean Ginseng Research Institute.
While culturing the adventitious root of cultivate ginseng, camphor ginseng, wild ginseng in a balloon shape bioreactor, the saponin content in the adventitious root was examined at the initial time, 10 days before harvest, and after harvest with the treatment of various concentrations of jasmonic acid and methyl jasmonic acid.
The experiment was conducted under the conditions of pH 6.0 and the MS media added with 3% sugar and 2.0 mg/L IBA.
The saponin content in the adventitious root was measured for the root treated by various concentrations of jamonic acid or methyl jamonic acid of 0, 1, 2, 5, 10 mg/L 10 days before harvest and the root washed by tap water obtained from the MS media not containing sugar or the treated root by tap water which includes jasmonic acid or methyl jasmonic acid, for one week.

[2] = system: adventitious root of cultivated ginseng; assay: Effect of added growth regulator on adventitious root propagation (cultivated ginseng); assay type: cell-based, Panax ginseng C.A. Meyer; conditions: concentration of 2-3 mg/L; text summary of Table 1 (cultivated and wild ginseng)
Description: After adding 3% of sugar to the MS media and adjusting pH6.0, basal medium were made by adding 1 mg/L, 2 mg/L, 3 mg/L, 5 mg/L of each of the IBA, NAA and BSAA as auxin. These basal mediums were divided into a 1 L flask and a 5 L bioreactor.

SMILES | saponin content [1] | biomass increment [2]
CC/C=C\CC1C(=O)CCC1CC(=O)OC (stereo not shown) [methyl jasmonic acid] | 7-8% | 
O=C(O)Cc1cccc2ccccc12 [NAA, naphthalemeacetic acid] |  | more than 5 times
CC/C=C\C[C@H]1C(=O)CC[C@@H]1CC(=O)O [Jasmonic acid, jasmonic acid] | 7-8% | 
O=C(O)CCCc1c[nH]c2ccccc12 [IBA] |  | more than 5 times

Reference: patent US20020142463A1, “Method for the mass propagation of adventitious roots of ginseng, camphor ginseng and wild ginseng by tissue culture and the improvement of their saponin content” (priority 2001, published 2002)
